{"source": "PubChem BioAssay AID652243 (Drosophila RNAi Screening Center, 2013)", "assay": "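Fly regulators of androgen-dependent reporter output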 (primary screen)", "cell system": "Drosophila S2R+ cells", "knock-down reagent": "long dsRNA against Drosophila genes", "duration": "72 h (48 h, then 24 h hormone)", "treatment": "synthetic androgen R1881 at 10 nM for 24 h", "measurement": "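Firefly light from an androgen-responsive reporter and Renilla control light per well, raw and unnormalised, for each of two replicates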", "reading the numbers": "firefly reporter light: higher = more light from androgen-responsive reporter; Renilla control light: higher = more constitutive control signal (cell number, transfection)", "hit rule": "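Across duplicate plates, a knock-down whose log firefly/Renilla ratio shifted a set fold down or up from the GFP/LacZ control mean was a hit; the downward cut appears as both 1.5 and 3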", "calls": "active = hit: reporter lowered or raised; inactive = no hit", "note": "The deposit covers about 24,000 reagents; shown is an unselected part of those with a known target gene and a result. In the full data, 246 (1%) were called active. 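Plates not normalised; calls are printed but the firefly/Renilla ratio behind them is not deposited; fold cut for lowering reported inconsistently.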 Raw values vary from plate to plate and are shown uncorrected. Reagents against one gene are numbered here. Not stated in the record: the amount of reagent."}
{"target": "Notum", "reagent no.": 1, "firefly reporter light, replicate 1": 1.84e5, "firefly reporter light, replicate 2": 1.62e5, "Renilla control light, replicate 1": 1.61e6, "Renilla control light, replicate 2": 1.13e6, "Call": "inactive"}
{"target": "CG13724", "reagent no.": 1, "firefly reporter light, replicate 1": 2.83e5, "firefly reporter light, replicate 2": 1.58e5, "Renilla control light, replicate 1": 1.94e6, "Renilla control light, replicate 2": 1.31e6, "Call": "inactive"}
{"target": "CG13724", "reagent no.": 2, "firefly reporter light, replicate 1": 1.04e6, "firefly reporter light, replicate 2": 1.34e6, "Renilla control light, replicate 1": 7.93e5, "Renilla control light, replicate 2": 8.29e5, "Call": "inactive"}
{"target": "CG5921", "reagent no.": 1, "firefly reporter light, replicate 1": 6.97e5, "firefly reporter light, replicate 2": 8.69e5, "Renilla control light, replicate 1": 1.07e6, "Renilla control light, replicate 2": 1.05e6, "Call": "inactive"}
{"target": "CG5921", "reagent no.": 2, "firefly reporter light, replicate 1": 1.74e5, "firefly reporter light, replicate 2": 1.47e5, "Renilla control light, replicate 1": 1.91e6, "Renilla control light, replicate 2": 1.88e6, "Call": "inactive"}
{"target": "CG5921", "reagent no.": 3, "firefly reporter light, replicate 1": 2.16e5, "firefly reporter light, replicate 2": 2.49e5, "Renilla control light, replicate 1": 5.09e5, "Renilla control light, replicate 2": 8.49e5, "Call": "inactive"}
{"target": "SkpD", "reagent no.": 1, "firefly reporter light, replicate 1": 5.58e5, "firefly reporter light, replicate 2": 4.02e5, "Renilla control light, replicate 1": 1.99e6, "Renilla control light, replicate 2": 2.28e6, "Call": "inactive"}
{"target": "CG11663", "reagent no.": 1, "firefly reporter light, replicate 1": 7.62e5, "firefly reporter light, replicate 2": 9.48e5, "Renilla control light, replicate 1": 7.26e5, "Renilla control light, replicate 2": 8.16e5, "Call": "inactive"}
{"target": "CG43759", "reagent no.": 1, "firefly reporter light, replicate 1": 1.44e5, "firefly reporter light, replicate 2": 1.40e5, "Renilla control light, replicate 1": 6.84e5, "Renilla control light, replicate 2": 6.62e5, "Call": "inactive"}
{"target": "CG43759", "reagent no.": 2, "firefly reporter light, replicate 1": 1.03e5, "firefly reporter light, replicate 2": 74874, "Renilla control light, replicate 1": 5.02e5, "Renilla control light, replicate 2": 2.55e5, "Call": "inactive"}
{"target": "CG43759", "reagent no.": 3, "firefly reporter light, replicate 1": 3.10e5, "firefly reporter light, replicate 2": 3.46e5, "Renilla control light, replicate 1": 4.67e5, "Renilla control light, replicate 2": 7.61e5, "Call": "inactive"}
{"target": "CG14442", "reagent no.": 1, "firefly reporter light, replicate 1": 8.63e5, "firefly reporter light, replicate 2": 1.11e6, "Renilla control light, replicate 1": 1.06e6, "Renilla control light, replicate 2": 9.51e5, "Call": "inactive"}
{"target": "Ugt49B2", "reagent no.": 1, "firefly reporter light, replicate 1": 3.56e5, "firefly reporter light, replicate 2": 4.12e5, "Renilla control light, replicate 1": 4.31e6, "Renilla control light, replicate 2": 4.57e6, "Call": "inactive"}
{"target": "Ugt49B2", "reagent no.": 2, "firefly reporter light, replicate 1": 7.16e5, "firefly reporter light, replicate 2": 8.86e5, "Renilla control light, replicate 1": 6.54e5, "Renilla control light, replicate 2": 1.06e6, "Call": "inactive"}
{"target": "CG6686", "reagent no.": 1, "firefly reporter light, replicate 1": 7.46e5, "firefly reporter light, replicate 2": 8.78e5, "Renilla control light, replicate 1": 2.16e6, "Renilla control light, replicate 2": 2.49e6, "Call": "inactive"}
{"target": "CG6686", "reagent no.": 2, "firefly reporter light, replicate 1": 2.55e5, "firefly reporter light, replicate 2": 2.20e5, "Renilla control light, replicate 1": 4.07e5, "Renilla control light, replicate 2": 6.76e5, "Call": "inactive"}
{"target": "Alg10", "reagent no.": 1, "firefly reporter light, replicate 1": 1.66e5, "firefly reporter light, replicate 2": 1.76e5, "Renilla control light, replicate 1": 2.04e6, "Renilla control light, replicate 2": 1.94e6, "Call": "inactive"}
{"target": "UbcE2H", "reagent no.": 1, "firefly reporter light, replicate 1": 1.33e5, "firefly reporter light, replicate 2": 67756, "Renilla control light, replicate 1": 5.75e5, "Renilla control light, replicate 2": 3.99e5, "Call": "inactive"}
{"target": "UbcE2H", "reagent no.": 2, "firefly reporter light, replicate 1": 4.22e5, "firefly reporter light, replicate 2": 4.41e5, "Renilla control light, replicate 1": 7.55e5, "Renilla control light, replicate 2": 5.44e5, "Call": "inactive"}
{"target": "CG43376", "reagent no.": 1, "firefly reporter light, replicate 1": 2.91e5, "firefly reporter light, replicate 2": 2.88e5, "Renilla control light, replicate 1": 2.08e6, "Renilla control light, replicate 2": 1.83e6, "Call": "inactive"}
{"target": "CG5756", "reagent no.": 1, "firefly reporter light, replicate 1": 95348, "firefly reporter light, replicate 2": 73153, "Renilla control light, replicate 1": 1.58e6, "Renilla control light, replicate 2": 1.58e6, "Call": "inactive"}
{"target": "CG5756", "reagent no.": 2, "firefly reporter light, replicate 1": 4.30e5, "firefly reporter light, replicate 2": 5.83e5, "Renilla control light, replicate 1": 9.32e5, "Renilla control light, replicate 2": 1.62e6, "Call": "inactive"}

Individual results from the entries so far:
Alg10, Renilla control light, replicate 2 = 1.94e6
Entry of Ugt49B2 #2 under “firefly reporter light, replicate 1”: 7.16e5
